This is an account of results in publication PMC3510509.

The chains behind the UniProt entries cited, without tags or fusion partners.
UniProt A0QNE0: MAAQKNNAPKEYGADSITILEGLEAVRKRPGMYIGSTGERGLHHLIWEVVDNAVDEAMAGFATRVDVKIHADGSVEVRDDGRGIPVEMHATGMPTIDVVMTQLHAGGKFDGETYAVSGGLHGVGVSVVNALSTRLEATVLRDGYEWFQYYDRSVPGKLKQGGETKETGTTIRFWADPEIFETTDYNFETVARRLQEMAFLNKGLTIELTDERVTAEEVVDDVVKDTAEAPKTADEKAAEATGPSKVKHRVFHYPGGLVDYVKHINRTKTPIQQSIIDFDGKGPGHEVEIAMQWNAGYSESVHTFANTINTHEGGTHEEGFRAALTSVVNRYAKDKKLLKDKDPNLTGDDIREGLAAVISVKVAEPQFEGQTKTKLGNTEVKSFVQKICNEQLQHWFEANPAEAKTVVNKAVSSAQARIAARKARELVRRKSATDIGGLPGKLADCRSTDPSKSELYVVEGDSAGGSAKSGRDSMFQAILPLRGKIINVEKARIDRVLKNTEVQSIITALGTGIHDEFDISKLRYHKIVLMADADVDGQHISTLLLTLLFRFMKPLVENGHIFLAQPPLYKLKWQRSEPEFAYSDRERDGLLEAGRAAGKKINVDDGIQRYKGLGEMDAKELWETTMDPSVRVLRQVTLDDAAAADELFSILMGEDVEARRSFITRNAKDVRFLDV

These are yes or no findings as the source states them, for the method shown. Some results given as binding are weak or reduced against the parent protein; the word gives no strength.

Assay [1] addresses Escherichia coli DNA gyrase subunit A (GyrA) (E. coli) (UniProt P0AES4). The experiment in a line: SEC; gel filtration of interspecies subunit mixtures; data not shown; both purified.
Assay [2] has the same target. The assay is described as follows: cross-linking; glutaraldehyde; gyrase subunits mixed 1:1 in supercoiling reaction buffer, on ice 30 min, then cross-linked at 37°C for 30 min; products resolved on SDS-PAGE, silver stained; both purified.

Take “Mycobacterium smegmatis DNA gyrase subunit B (GyrB) (from UniProt A0QNE0 1-675)”: the binding entry in assay [1] and in assay [2] was “binds” throughout.
